The values below come from publication doi:10.1101/2021.05.19.444448.

By UniProt entry, the sequences of proteins in these tests, tags left out.
UniProt P11142: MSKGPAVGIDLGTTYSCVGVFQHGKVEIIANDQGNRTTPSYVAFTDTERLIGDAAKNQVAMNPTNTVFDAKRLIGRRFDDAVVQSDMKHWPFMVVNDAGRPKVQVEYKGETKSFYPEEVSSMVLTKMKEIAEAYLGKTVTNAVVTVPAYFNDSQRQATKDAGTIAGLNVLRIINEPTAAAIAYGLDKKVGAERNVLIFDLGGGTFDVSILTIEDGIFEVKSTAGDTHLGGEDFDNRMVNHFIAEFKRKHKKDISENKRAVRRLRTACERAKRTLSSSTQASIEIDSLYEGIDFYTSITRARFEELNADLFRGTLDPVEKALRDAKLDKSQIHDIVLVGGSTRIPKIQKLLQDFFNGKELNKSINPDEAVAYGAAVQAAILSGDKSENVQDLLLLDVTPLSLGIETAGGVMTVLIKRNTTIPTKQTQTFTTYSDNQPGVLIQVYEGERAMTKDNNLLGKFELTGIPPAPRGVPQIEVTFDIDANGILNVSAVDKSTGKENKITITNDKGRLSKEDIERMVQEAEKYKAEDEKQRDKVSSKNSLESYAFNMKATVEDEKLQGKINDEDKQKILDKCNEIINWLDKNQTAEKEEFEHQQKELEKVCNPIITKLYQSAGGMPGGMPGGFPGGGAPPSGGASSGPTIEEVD

For experiment [1], the target named is T1, PGBD1 (endogenous, SHEP cells) (human (endogenous in SHEP)) (UniProt Q96JS3).
T1 sequence: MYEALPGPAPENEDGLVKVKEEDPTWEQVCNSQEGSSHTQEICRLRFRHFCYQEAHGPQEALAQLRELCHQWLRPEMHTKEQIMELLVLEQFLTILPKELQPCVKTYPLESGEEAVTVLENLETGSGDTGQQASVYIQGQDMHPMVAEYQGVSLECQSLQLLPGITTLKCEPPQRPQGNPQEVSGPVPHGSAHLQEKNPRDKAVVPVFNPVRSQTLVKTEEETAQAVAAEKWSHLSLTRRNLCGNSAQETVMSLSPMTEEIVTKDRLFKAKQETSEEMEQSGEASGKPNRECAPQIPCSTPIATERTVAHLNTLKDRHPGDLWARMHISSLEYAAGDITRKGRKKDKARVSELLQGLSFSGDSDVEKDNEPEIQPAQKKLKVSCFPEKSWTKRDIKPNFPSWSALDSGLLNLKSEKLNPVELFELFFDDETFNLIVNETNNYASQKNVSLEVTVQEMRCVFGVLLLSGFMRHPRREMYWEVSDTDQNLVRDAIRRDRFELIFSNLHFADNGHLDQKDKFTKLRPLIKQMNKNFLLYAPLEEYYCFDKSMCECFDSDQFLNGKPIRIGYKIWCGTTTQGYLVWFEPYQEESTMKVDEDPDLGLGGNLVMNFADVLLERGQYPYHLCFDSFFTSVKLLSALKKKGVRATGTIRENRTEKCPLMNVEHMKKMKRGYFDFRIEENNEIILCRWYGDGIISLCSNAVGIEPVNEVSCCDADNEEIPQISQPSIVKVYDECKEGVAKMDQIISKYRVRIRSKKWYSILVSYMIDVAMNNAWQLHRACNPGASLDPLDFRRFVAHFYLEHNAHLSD
The experiment can be described thus: co-IP.

For experiment [2], the target named is T1, PGBD1 (endogenous, SHEP cells) (human (endogenous in SHEP)). Kind of experiment: co-IP. This is another data set of the same source.

Where two headings read alike, the source gives them in different places. Results are given in words; binding and its absence hold for the method and conditions named. In cells and extracts the contact can be indirect. Some binding calls cover weakened binding; strength is not graded here.

As for “HSPA8/HSC70, endogenous in SHEP (from UniProt P11142 1-646)”, in experiment [1], the binding entry is listed as “binds”.

B1: thioredoxin (TXN), in SHEP (protein, UniProt P10599 1-105)
chain: MVKQIESKTAFQEALDAAGDKLVVVDFSATWCGPCKMIKPFFHSLSEKYSNVIFLEVDVDDCQDVASECEVKCMPTFQFFKKGQKVGEFSGANKEKLEATINELV
B1: the binding entry in experiment [2] is “binds”.
